Laboratory results taken from patent US10688099B2, “Methods for modulating the amount of RNA transcripts” (PTC Therapeutics, Inc., priority 2013, dated 2020).
The source gives many values for each of these; only a part stands here.

Tested on: RNA isoforms in PNN 1-46 SMA type I patient-derived fibroblasts
Assay: RNA Abundance Modulation (RNA isoform abundance, iFPM, HiSeq RNA sequencing)
Format: cell-based, human
Conditions: 3 μM
Description: Cells from a cell line of interest are cultured in conditions sufficient to yield the number of cells capable of generating enough RNA for subsequent sequencing steps. Cells from the tested cell line are contacted with a compound described herein.
To culture said cells, they are seeded, at appropriate concentrations in a volume of media in a cell culture container and incubated for 4, 5, 6, 7, 8, 9, 10, or more hours. A concentrated solution of compound in a vehicle (e.g., DMSO) is then added in sufficient volume to result in the intended final concentration of the compound, for example 100 nM, 500 nM, 1 μM, 5 μM, 10 μM, 15 μM, 20 μM, or more. The cells may also be treated with vehicle alone, as a control. A number of replicates of each concentration or control may be made (e.g., 2 replicates). The cells are then incubated at a constant temperature appropriate for cell culture of the particular cell line (e.g., 37° C.) for 6, 12, 18, 24, 48, or more hours. After incubation, the growth medium is removed and the cells are washed with the appropriate buffer (e.g., PBS). Cells are then removed from adherence to the cell culture container by treatment with a solution containing trypsin, and the trypsin subsequently quenched with the appropriate volume of buffer (e.g., DMEM-FBS). The cells are then pelleted with gentle centrifugation (e.g., ≤90×g centrifugal force) and resuspended in a buffer to lyse the cells for extraction of RNA. The cell lysates may then be frozen (e.g., at −80° C.) or, alternately, may immediately be used in a procedure to purify the RNA (e.g. by use of the RNEASY PLUS® minikit). The RNA from cell lysates is eluted in the appropriate volume of buffer (e.g., RNEASE-FREE H2O®). The resulting purified RNA may then be sequenced (e.g., using RNASeq) or analyzed using a human exon array (e.g., by GENECHIP® human exon array) to determine changes in the RNA levels in those cells treated with compound compared to those cells treated only with DMSO. The purified RNA may also be quantified by other methods known in the art.
Using the RNA data obtained from sequencing, exon array, or other methods, a statistical analysis can reveal changes in the RNA levels of compound-treated compared with control. For example, t-test p-values may be calculated for the data obtained through sequencing and exon array methods in order to compare compound-treated cells to those treated with the DMSO control. […] Analysis of the sequencing and exon array data may then also yield predictions about the cause of the aberrant amount of an RNA transcript in the cells (e.g., perturbation of RNA splicing, RNA transcription, or RNA stability). These predictions may be further confirmed by methods known in the art. For example, RT-PCR and RT-qPCR may be used to confirm the change in amount of RNA transcripts for one or more particular transcripts of interest.
Following the methods described above in Example 1, PNN 1-46 SMA type I patient-derived fibroblasts were treated with 300 nM or 3 μM Compounds 774 and 808 in 0.5% DMSO.
700,000 cells were seeded in 10 mL of medium (DMEM plus 10% FBS) in a T-75 flask. Cells were allowed to attach for at least 4 hrs, after which 50 μL of a 200× compound solution (100% DMSO) was added to each well, and the plate was incubated at 37° C. for 24 hrs.
At the end of the incubation period, the supernatant was removed and the cells where washed with PBS. TrypLE (Invitrogen) express solution was added (e.g. 1.5 mL per one T75 flask). The flasks were incubated for 3 to 5 min at 37° C. The trypsin was then quenched, e.g., by adding 10 mL DMEM-FBS.
Next, the cells were pelleted using gentle centrifugation without exceeding 90×g centrifugal force. The supernatant was removed and the cell pellet was re-suspended in 600 μL RLT buffer (the RLT buffer was supplemented with beta-mercaptoethanol according to the RNeasy protocol manual) by pipetting up and down until the pellet was completely dissolved […]

CCc1nc(C)cn2nc(-c3cc(=O)n4cc(C5CCN(C)CC5)cc(C)c4n3)cc12 [Compound 774]
ave Cpd (GAS7 NM_201433): 774 iFPM
FC (x + 1) (GGCT AK021779): 1.1596
L2FC (x + 1) (GGCT AK021779): 0.214
L2abs (Cpd-DMSO) (GGCT AK021779): −0.63
abs (Cpd-DMSO) (GGCT AK021779): 1 iFPM
amp FC (x + 1) (GGCT AK021779): 1.16
ave Cpd (GGCT AK021779): 4 iFPM
FC (x + 1) (GGCT NM_024051): 1.7413
L2FC (x + 1) (GGCT NM_024051): 0.800
L2abs (Cpd-DMSO) (GGCT NM_024051): 8.65
abs (Cpd-DMSO) (GGCT NM_024051): 402 iFPM
amp FC (x + 1) (GGCT NM_024051): 1.74
ave Cpd (GGCT NM_024051): 944 iFPM
FC (x + 1) (GGCT NM_001199815): 1.6353
L2FC (x + 1) (GGCT NM_001199815): 0.710
L2abs (Cpd-DMSO) (GGCT NM_001199815): 1.16
abs (Cpd-DMSO) (GGCT NM_001199815): 2 iFPM
amp FC (x + 1) (GGCT NM_001199815): 1.64
ave Cpd (GGCT NM_001199815): 5 iFPM
FC (x + 1) (GGCT NM_001199816): 4.0099
L2FC (x + 1) (GGCT NM_001199816): 2.004
L2abs (Cpd-DMSO) (GGCT NM_001199816): 5.51
abs (Cpd-DMSO) (GGCT NM_001199816): 46 iFPM
amp FC (x + 1) (GGCT NM_001199816): 4.01
ave Cpd (GGCT NM_001199816): 60 iFPM
FC (x + 1) (GGCT NM_001199817): 0.2461
L2FC (x + 1) (GGCT NM_001199817): −2.022
L2abs (Cpd-DMSO) (GGCT NM_001199817): 1.61
abs (Cpd-DMSO) (GGCT NM_001199817): 3 iFPM
amp FC (x + 1) (GGCT NM_001199817): 4.06
ave Cpd (GGCT NM_001199817): 0 iFPM
FC (x + 1) (GGCT NR_037669): 0.0433
L2FC (x + 1) (GGCT NR_037669): −4.528
L2abs (Cpd-DMSO) (GGCT NR_037669): 7.81
abs (Cpd-DMSO) (GGCT NR_037669): 224 iFPM
amp FC (x + 1) (GGCT NR_037669): 23.07
ave Cpd (GGCT NR_037669): 9 iFPM
FC (x + 1) (GJC1 AK124339): 0.6383
L2FC (x + 1) (GJC1 AK124339): −0.648
L2abs (Cpd-DMSO) (GJC1 AK124339): 3.69
abs (Cpd-DMSO) (GJC1 AK124339): 13 iFPM
amp FC (x + 1) (GJC1 AK124339): 1.57
ave Cpd (GJC1 AK124339): 22 iFPM
FC (x + 1) (GJC1 CCDS11487): 0.9189
L2FC (x + 1) (GJC1 CCDS11487): −0.122
L2abs (Cpd-DMSO) (GJC1 CCDS11487): 4.92
abs (Cpd-DMSO) (GJC1 CCDS11487): 30 iFPM
amp FC (x + 1) (GJC1 CCDS11487): 1.09
ave Cpd (GJC1 CCDS11487): 342 iFPM
FC (x + 1) (GJC1 NM_005497): 1.0836
L2FC (x + 1) (GJC1 NM_005497): 0.116
L2abs (Cpd-DMSO) (GJC1 NM_005497): 7.12
abs (Cpd-DMSO) (GJC1 NM_005497): 139 iFPM
amp FC (x + 1) (GJC1 NM_005497): 1.08
ave Cpd (GJC1 NM_005497): 1804 iFPM
FC (x + 1) (GJC1 NM_001080383): 4.6793
L2FC (x + 1) (GJC1 NM_001080383): 2.226
L2abs (Cpd-DMSO) (GJC1 NM_001080383): 8.14
abs (Cpd-DMSO) (GJC1 NM_001080383): 282 iFPM
amp FC (x + 1) (GJC1 NM_001080383): 4.68
ave Cpd (GJC1 NM_001080383): 358 iFPM
FC (x + 1) (GPSM2 AB445462): 0.7229
L2FC (x + 1) (GPSM2 AB445462): −0.468
L2abs (Cpd-DMSO) (GPSM2 AB445462): 7.09
abs (Cpd-DMSO) (GPSM2 AB445462): 136 iFPM
amp FC (x + 1) (GPSM2 AB445462): 1.38
ave Cpd (GPSM2 AB445462): 353 iFPM
FC (x + 1) (GPSM2 AK295563): 0.3409
L2FC (x + 1) (GPSM2 AK295563): −1.552
L2abs (Cpd-DMSO) (GPSM2 AK295563): 8.69
abs (Cpd-DMSO) (GPSM2 AK295563): 414 iFPM
amp FC (x + 1) (GPSM2 AK295563): 2.93
ave Cpd (GPSM2 AK295563): 213 iFPM
FC (x + 1) (GPSM2 NM_013296): 0.7819
L2FC (x + 1) (GPSM2 NM_013296): −0.355
L2abs (Cpd-DMSO) (GPSM2 NM_013296): 7.66
abs (Cpd-DMSO) (GPSM2 NM_013296): 203 iFPM
amp FC (x + 1) (GPSM2 NM_013296): 1.28
ave Cpd (GPSM2 NM_013296): 726 iFPM
FC (x + 1) (GRK6 AK056697): 0.0663
L2FC (x + 1) (GRK6 AK056697): −3.915
L2abs (Cpd-DMSO) (GRK6 AK056697): 7.15
abs (Cpd-DMSO) (GRK6 AK056697): 142 iFPM
amp FC (x + 1) (GRK6 AK056697): 15.09
ave Cpd (GRK6 AK056697): 9 iFPM
FC (x + 1) (GRK6 NM_002082): 1.3813
L2FC (x + 1) (GRK6 NM_002082): 0.466
L2abs (Cpd-DMSO) (GRK6 NM_002082): 6.31
abs (Cpd-DMSO) (GRK6 NM_002082): 79 iFPM
amp FC (x + 1) (GRK6 NM_002082): 1.38
ave Cpd (GRK6 NM_002082): 286 iFPM
FC (x + 1) (GRK6 NM_001004105): 1.2832
L2FC (x + 1) (GRK6 NM_001004105): 0.360
L2abs (Cpd-DMSO) (GRK6 NM_001004105): 6.50
abs (Cpd-DMSO) (GRK6 NM_001004105): 90 iFPM
amp FC (x + 1) (GRK6 NM_001004105): 1.28
ave Cpd (GRK6 NM_001004105): 409 iFPM
FC (x + 1) (GRK6 NM_001004106): 0.6950
L2FC (x + 1) (GRK6 NM_001004106): −0.525
L2abs (Cpd-DMSO) (GRK6 NM_001004106): 7.79
abs (Cpd-DMSO) (GRK6 NM_001004106): 222 iFPM
amp FC (x + 1) (GRK6 NM_001004106): 1.44
ave Cpd (GRK6 NM_001004106): 504 iFPM
FC (x + 1) (HAS2 NM_005328): 2.2996
L2FC (x + 1) (HAS2 NM_005328): 1.201
L2abs (Cpd-DMSO) (HAS2 NM_005328): 9.55
abs (Cpd-DMSO) (HAS2 NM_005328): 752 iFPM
amp FC (x + 1) (HAS2 NM_005328): 2.30
ave Cpd (HAS2 NM_005328): 1329 iFPM
FC (x + 1) (HAT1 AK309001): 2.7002
L2FC (x + 1) (HAT1 AK309001): 1.433
L2abs (Cpd-DMSO) (HAT1 AK309001): 2.78
abs (Cpd-DMSO) (HAT1 AK309001): 7 iFPM
amp FC (x + 1) (HAT1 AK309001): 2.70
ave Cpd (HAT1 AK309001): 10 iFPM
FC (x + 1) (HAT1 NM_003642): 1.2362
L2FC (x + 1) (HAT1 NM_003642): 0.306
L2abs (Cpd-DMSO) (HAT1 NM_003642): 9.17
abs (Cpd-DMSO) (HAT1 NM_003642): 574 iFPM
amp FC (x + 1) (HAT1 NM_003642): 1.24
ave Cpd (HAT1 NM_003642): 3005 iFPM
FC (x + 1) (HAT1 NR_027862): 0.0141
L2FC (x + 1) (HAT1 NR_027862): −6.153
L2abs (Cpd-DMSO) (HAT1 NR_027862): 6.13
